# Data reported in paper PMC6827007.
# No constants are given. Whether binding was seen depends on the method and setting.
# B1: C-terminal redox domain of Arabidopsis thaliana APR1 (AtAPR1), amino acids 353-461 (domain or fragment, UniProt P92979 353-461)
# chain: GSPEFMENLVTLSRQGIENLMKLENRKEPWIVVLYAPWCPFCQAMEASYDELADKLAGSGIKVAKFRADGDQKEFAKQELQLGSFPTILVFPKNSSRPIKYPSEKRDVESLTSFL
# Target: C-terminal redox domain of Arabidopsis thaliana APR1 (AtAPR1), amino acids 353-461 (Arabidopsis thaliana) (UniProt P92979)
# Assay: SEC; HiPrep 16/60 Sephacryl S-200 HR column, 20 mM Tris-HCl pH 7.0, 200 mM NaCl; mass estimated against BioRad standard proteins; both purified
binder,measurement,value
B1,binding,no binding
